Data: PubChem BioAssay AID743255 (National Center for Advancing Translational Sciences (NCATS), 2014)
The campaign covered roughly 390,000 compounds. About 910 (0.23%) were called active. Inconclusive means that the source gave no clear call. Such entries were picked first, then a sample of the others. The call rests on the fitted dose curve; in most records, active means well fitted inhibition curve with a large enough effect; inconclusive means small, poorly fitted or top-dose-only effect; inactive means no such curve, though single readings can be large or run the other way. A potency beside an inconclusive call is a rough fit, not a confirmed value.

Chains of the proteins cited; added tags and fusions are not shown. Lines headed by an entry give the natural chain unless they say otherwise; changes in a name come on top.
UniProt O94782: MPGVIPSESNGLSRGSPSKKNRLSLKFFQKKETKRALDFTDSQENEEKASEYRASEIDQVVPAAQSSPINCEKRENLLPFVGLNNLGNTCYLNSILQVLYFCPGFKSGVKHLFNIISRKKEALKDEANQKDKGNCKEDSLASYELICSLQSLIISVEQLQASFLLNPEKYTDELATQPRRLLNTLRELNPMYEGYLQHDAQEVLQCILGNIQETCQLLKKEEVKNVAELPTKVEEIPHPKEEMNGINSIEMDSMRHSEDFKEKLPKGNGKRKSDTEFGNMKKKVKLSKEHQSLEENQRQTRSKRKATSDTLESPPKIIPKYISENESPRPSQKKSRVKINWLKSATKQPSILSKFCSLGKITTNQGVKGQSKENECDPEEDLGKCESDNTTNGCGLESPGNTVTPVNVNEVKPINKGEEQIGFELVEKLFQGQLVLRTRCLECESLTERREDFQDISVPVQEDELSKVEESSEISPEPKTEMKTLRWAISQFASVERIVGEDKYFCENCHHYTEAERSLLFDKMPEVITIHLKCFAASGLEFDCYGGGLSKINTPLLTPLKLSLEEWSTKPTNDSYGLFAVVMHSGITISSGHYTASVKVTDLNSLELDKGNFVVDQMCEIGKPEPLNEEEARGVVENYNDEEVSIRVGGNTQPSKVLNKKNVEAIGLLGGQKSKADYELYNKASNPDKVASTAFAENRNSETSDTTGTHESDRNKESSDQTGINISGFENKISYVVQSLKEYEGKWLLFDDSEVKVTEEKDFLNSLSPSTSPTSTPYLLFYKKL

biological target: Ubiquitin carboxyl-terminal hydrolase 1 (Homo sapiens) (UniProt O94782); assay: Inhibitors of USP1/UAF1: Primary Screen; settings: recombinant USP1/UAF1, Ub-Rhodamine cleavage fluorescence; activity change, negative = inhibition: at 57.1 µM (top of the series); further: nearly all actives have a fitted effect of over 60% in size
Summary of the method: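 Step one: compound is pinned into 1nM USP1/UAF1 in HEPES pH 7.8 buffer with TCEP. Step two: 15 min room-temperature incubation. Step three: Ub-Rho (150nM final) starts cleavage, tracked by fluorescence over six one-minute reads.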
On the % scale 0 is the no-effect control and ±100 the full control effect; potency means the concentration at half of the fitted maximal effect.

| Compound | activity change, negative = inhibition | Potency |
| --- | --- | --- |
| O=C(NCc1ccc2c(c1)CCO2)Nc1ccccc1 | inactive: -9.12% |  |
| C=CCn1cccc(C(=O)Nc2cc(OC)c(OC)c(OC)c2)c1=O |  | inconclusive: 35.5 µM [inhibitor, single point] |
| CC(=O)N[C@@H](C)c1nc2ccccc2n1CCCN1CCN(c2nc(-c3ccc(C)cc3)cs2)CC1 |  | inconclusive: 7.08 µM [inhibitor, partial curve, poor fit] |
| Cc1ccc(CNc2cc(C)nc3nc(-c4cccc(C)c4)nn23)cc1 |  | inconclusive: 44.7 µM [inhibitor, partial curve] |
| COc1ccc(OC)c(NC(=O)c2cc(=O)c3c(C)cc(C)cc3o2)c1 |  | inconclusive: 0.631 µM [inhibitor, full curve, poor fit] |
| CC(NC(=O)c1ccco1)C(=O)O (stereo not drawn) | inactive: 4.77% |  |
| Cc1ccc(C(=O)N2CCCC(N3CCN(c4cccc(C(F)(F)F)c4)CC3)C2)s1 (stereo not drawn) |  | inconclusive: 44.7 µM [inhibitor, partial curve, poor fit] |
| Cn1cc(S(=O)(=O)NC[C@H]2O[C@@H](n3ccc(=O)[nH]c3=O)[C@H](O)[C@@H]2O)cn1 |  | inconclusive: 3.55 µM [inhibitor, single point] |
| COc1ccc(Cl)cc1NC(=O)C(C)N1CCN(C/C=C/c2ccccc2)CC1 (stereo not drawn) | inactive: -6.71% |  |
| COc1ccc2c(c1)c1nnc(SCC(=O)Nc3ccccc3F)nc1n2C |  | inconclusive: 39.8 µM [inhibitor, partial curve] |
| Cc1cn2c(=O)c(S(=O)(=O)NCc3ccccc3Cl)c(C)nc2s1 |  | inconclusive: 39.8 µM [inhibitor, partial curve] |
| COc1ccc2oc(-c3ccccc3[N+](=O)[O-])cc(=O)c2c1 |  | inconclusive: 7.94 µM [inhibitor, partial curve, poor fit] |
| O=C(CN1CCN(S(=O)(=O)c2ccc(Br)s2)CC1)NCC1CCCCC1 | inactive: -2.46% |  |
| COc1ccc(-n2nnnc2SCC(=O)Nc2ccc3c(c2)OCCO3)cc1OC |  | inconclusive: 44.7 µM [inhibitor, partial curve, poor fit] |
| Cc1cccc(CNC(=O)c2ccc(NC(=O)N3CCSc4ccccc43)cc2)c1 |  | inconclusive: 7.94 µM [inhibitor, partial curve, poor fit] |
| Fc1ccc(-[n+]2nc(Nc3ccccc3)sc2-c2c3ccccc3cc3ccccc23)cc1 |  | inconclusive: 17.8 µM [inhibitor, partial curve, poor fit] |
| Cc1ccccc1N/C=C/C(=C(C#N)C#N)N(C)C |  | inconclusive: 0.891 µM [inhibitor, full curve, poor fit] |
| NC(=O)CC(NC(=O)c1ccc(Br)cc1)c1ccc(N2CCC(Br)CC2)c([N+](=O)[O-])c1 (stereo not drawn) |  | inconclusive: 35.5 µM [inhibitor, partial curve, poor fit] |
| Cc1c(C(c2ccc(Br)cc2)c2c(C)n(C)n(-c3ccccc3)c2=O)c(=O)n(-c2ccccc2)n1C |  | inconclusive: 8.91 µM [inhibitor, partial curve, poor fit] |

| Compound | activity change, negative = inhibition | Potency |
| --- | --- | --- |
| COC(=O)c1ccc(OCC2c3cc(OC)c(OC)cc3CCN2C(=O)c2ccco2)cc1 (stereo not drawn) |  | inconclusive: 44.7 µM [inhibitor, single point] |
| Cc1cccc(C(=O)Nc2sc(-c3ccccc3)cc2C(=O)O)c1 |  | inconclusive: 50.1 µM [inhibitor, partial curve, poor fit] |
| CCOC(=O)C1(CCOc2ccccc2)CCN(Cc2ccncc2)CC1 | inactive: -11.6% |  |
| CCCCCCc1cc2cc(S(=O)(=O)c3ccc(C)cc3)c(=O)oc2cc1O |  | inconclusive: 1.78 µM [inhibitor, full curve, poor fit] |
| CN(C)S(=O)(=O)N(CC(=O)N1CCN(c2ccccc2F)CC1)c1ccccc1 |  | inconclusive: 11.2 µM [inhibitor, partial curve] |
| CC1CCCCC1NC(=O)c1ccc(CNc2c(N3CCCC3)c(=O)c2=O)cc1 (stereo not drawn) |  | inconclusive: 0.126 µM [inhibitor, full curve, poor fit] |
| COc1ccc(C(=O)Nc2cc(C)nn2-c2ccc(C)cc2)cc1 |  | inconclusive: 3.55 µM [inhibitor, partial curve] |
| CCOc1ccc(CNC(=O)c2ccc3c(c2)nc2n3CCC(C)C2)cc1OC (stereo not drawn) |  | inconclusive: 4.47 µM [inhibitor, partial curve, poor fit] |
| Oc1ccc(/C=N/Nc2nc(-c3ccccc3F)nc3ccccc23)c(O)c1 |  | inconclusive: 35.5 µM [inhibitor, single point] |
| CN(C(=O)CO/N=C/c1ccc(Cl)cc1)c1ccccc1 |  | inconclusive: 141 µM [inhibitor, partial curve, poor fit] |
| COC(=O)c1nn(-c2ccccc2)c(=O)cc1O |  | inconclusive: 44.7 µM [inhibitor, partial curve, poor fit] |
| CCOC(=O)c1c(NC(=O)CN2CCN(c3cccc(Cl)c3)CC2)sc(C)c1C |  | inconclusive: 12.6 µM [inhibitor, partial curve, poor fit] |
| Cc1cccn2c(=O)c(/C=C(\C#N)C(=O)NCc3ccco3)c(N3CCCCCC3)nc12 |  | inconclusive: 44.7 µM [inhibitor, partial curve, poor fit] |
| O=c1cc(O)c2sc(Nc3ccc(F)c(Cl)c3)nc2[nH]1 |  | inconclusive: 39.8 µM [inhibitor, single point] |
| COc1ccccc1Cc1nc2ccccc2nc1SCC(=O)NCc1ccccc1Cl |  | inconclusive: 20 µM [inhibitor, partial curve] |
| O=C1c2cccc3cccc(c23)C(=O)N1/N=C/c1ccc(O)cc1O | inactive: -20.7% |  |
| O=C1C(F)=CC(COC(c2ccccc2)(c2ccccc2)c2ccccc2)OC1n1cc(F)c(=O)[nH]c1=O (stereo not drawn) |  | inconclusive: 39.8 µM [inhibitor, partial curve] |
| COc1ccccc1CNC(=O)c1oc2ccc3c(c2c1C)C(=O)CC(C)(C)O3 |  | inconclusive: 0.794 µM [inhibitor, full curve] |
| CCOC(=O)CSc1nnc(-c2ccoc2C)n1-c1ccc(OCC)cc1 | inactive: -5.91% |  |

Complete entries, quoted from the list.
`CCOC(=O)c1c(NC(=O)CN2CCN(c3cccc(Cl)c3)CC2)sc(C)c1C` is listed with Potency: inconclusive: 12.6 µM [inhibitor, partial curve, poor fit]
`COc1ccccc1CNC(=O)c1oc2ccc3c(c2c1C)C(=O)CC(C)(C)O3` is listed with Potency: inconclusive: 0.794 µM [inhibitor, full curve]
